## Results of single-concentration screens

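Phenotypic screen: M. tuberculosis growth, cholesterol and DPPC medium, 4 days; the read-out is not stated. Concentration: 500 µM. Direction is inferred from retests: higher values go with more growth inhibition. Size under these conditions: about 18,000 compounds, about 900 of them at 50% or above in at least one test.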

Results are given as percent effect. How 0% and 100% were set is not recorded. Most values in the screen are low, and negative values occur. This is an unselected part of the compounds tested.

compound,percent effect
O=C(Cc1ccc(F)cc1)N1CCNCC1,12.82
CCN(CCO)C(=O)c1ccn(-c2ccccc2F)n1,13.07
COc1ccc(CC(=O)NCC(C)C)c(OC)c1,-7.551
CCOc1ncc(C(=O)NCc2ccnn2C)cc1Cl,33
CNCC(=O)Nc1ccc(N2CCOCC2)cc1,12.68
CCC1(CO)CCCN(Cc2[nH]cc(C)c(=O)c2C)C1 (centres unmarked),15.46
CCn1c(CN(C)CCCO)nnc1[C@H]1C[C@@H](N)C1,3.879
CCOc1ccc(Br)cc1CNc1nn[nH]n1,1.096
CSc1cc(NC(=O)CCc2cncc(F)c2)ccn1,15.53
CC1(N)CCN(Cc2ccccc2)C1 (centres unmarked),3.357
Cc1nnc(CCNC(=O)C(N)c2c(C)n[nH]c2C)s1 (centres unmarked),-5.929
CCC(C(=O)NCCc1nccn1C)N1CCCC1=O (centres unmarked),0.7385
O=C(CNC1CC1)NC[C@H]1CCc2ccccc2O1,54.65
CCC(CO)N1CCN(c2nccnc2C#N)CC1 (centres unmarked),0.3442
CCCc1nnc(NC2CCN(C(=O)OCC)CC2)o1,45.77
CN(C)C(=O)CNc1ccc(OC(F)F)c(Cl)c1,-21.02
CCCNS(=O)(=O)c1cnn(C)c1,11.93
CC(CO)NC(=O)NCc1ccnc(N2CCCC2)c1 (centres unmarked),12.58
CSCc1nc(CNC(=O)c2ccnn2C(C)C)cs1,30.87
CC(=O)c1c(C)cccc1NC(=O)CN1CCCC1=O,7.61
O=C(c1csc(Br)c1)N1CCOCC1,17.21
CC(C)CN(C)C(=O)NCc1nnc2n1CCCCC2,-13.1
COc1ncccc1NC(=O)NCc1csc(C)n1,-1.249
OCc1nncn1-c1ccccc1,-3.658
CSc1ccc(C(CN)N(C)C)cc1 (centres unmarked),73.55
CC(C)N(CC(=O)N1CCCC1)CC(C)(C)O,-2.511
CN(C)S(=O)(=O)c1cccc(S(=O)(=O)N(C)C)c1,27.48
COCCNCC(=O)OC,-11.51
CSc1ccc(OCCN)cc1,46.47
CC(NC(=O)CS(=O)(=O)c1ncccc1Cl)C1CC1 (centres unmarked),8.248
CCOc1cccc(NC(=O)c2ccoc2)n1,-3.325
CCC(C)CN1CCN(CCS(C)(=O)=O)CC1 (centres unmarked),-4.888
Cc1nccn1CCC(=O)Nc1sccc1C#N,-19.34
CC(C)N(CC(F)F)C(=O)C(N)c1ccccc1 (centres unmarked),-1.794
Cc1cc(N)n(CC(=O)N2CCN(C)C(=O)C2C)n1 (centres unmarked),-3.902
N#Cc1c[nH]c(C(=O)NCC2CCCS2)c1 (centres unmarked),-0.2979
Nc1ccc(Br)c(=O)[nH]1,-22.27
NCc1ccc(C(N)=O)cc1,-0.5838
CNCC(=O)N1CCC(Oc2ccc(C)cc2)CC1,28
C=C(Br)CNC(=O)Cc1c(F)cccc1F,6.573
CCNCC(C)(O)c1ccccc1 (centres unmarked),18.87
CCc1ncc(C(=O)N2CCN(c3nccs3)CC2)s1,42.31
Cc1nn(C)c(C)c1CCC(=O)NC1CCCNC1=O (centres unmarked),4.69
NS(=O)(=O)NCC1CCCN(CCc2cccs2)C1 (centres unmarked),17.78
O=C(NC1CCN(c2ccccn2)CC1)c1cccs1,-0.4172
COc1ccccc1NC(=O)c1csnn1,-21.75
Cc1cc(NC(=O)NCCN2CCCC(C)C2)n(C)n1 (centres unmarked),3.594
CCCn1ncnc1C(C)NC(=O)c1cnccn1 (centres unmarked),10.6
O=C(Nc1c[nH]nc1C1CCCNC1)c1ccccc1 (centres unmarked),-18.56
CCCn1ccnc1CNC(=O)c1nc(C)c[nH]1,-13.75
CCCN(CC(=O)NC)C(=O)c1cc(C)ccc1O,21.14
CNC(C)(C)CNC(=O)Nc1cc(OC)ccc1OC,6.481
COCCC1(CN2CCC(C(N)=O)C2)CCC1 (centres unmarked),-12.62
NCC1CCN(C(=O)c2ccccc2C(F)(F)F)C1 (centres unmarked),12.22
CC1(C)Oc2ccc(CN)cc2O1,-2.462
Cn1ccc(CNC(=O)N[C@H](CO)c2ccccc2)c1,-14.47
CC(=O)Nc1ccc(C(=O)Nc2nnc(C)s2)cc1,-10.3
CN(C)c1ccc(CN(C)[C@@H]2CCCC[C@@H]2O)cn1,14.84
Cn1ccnc1CCNC(=O)C1(C)CCCO1 (centres unmarked),3.145
CS(=O)(=O)N1CCOCC12CCC2,-3.003
CN1CCC(NC(=O)C2CC2)CC1,8.605
CC(C(=O)N1CCNC(=O)C1)S(C)(=O)=O (centres unmarked),3.861
COc1ccc(Br)c(CN)c1,55.1
CNC(=O)NCCOc1ccc2c(c1)OCO2,-3.768
CC(C)(C)OC(=O)N1C[C@@H]2CCN[C@@H]2C1,-24.61
O=C(CSc1cnn[nH]1)Nc1ccncc1,7.139
CCCn1nnnc1CSc1ccccc1C#N,48.49
CNCC1CCCN1C(=O)c1cccc(C)c1F (centres unmarked),20.54
CCN1CCN(c2c(Cl)cccc2NC(C)=O)CC1,25.31
O=C(NC1CCN(C2CC2)CC1)c1cncc(Br)c1,-6.748
Cc1nc(CC(=O)NC2C=CS(=O)(=O)C2)cs1 (centres unmarked),-4.212
Cc1ccc(NC(=O)Cn2ccc(=O)n(C)c2=O)nc1,3.402
COCC(CCO)NC(=O)CCCc1ccccc1 (centres unmarked),-16.65
CCOC(=O)C(C)n1cnc2c1c(=O)n(C)c(=O)n2C (centres unmarked),13.95
CC(=O)N1CCNCC12CCCCC2,16.94
Cc1cccc(CC(=O)NCC2CCNCC2)c1,18.28
Cc1ccc(CNC(=O)C2CCCCC(=O)N2)o1 (centres unmarked),9.643
CC(C)(CNS(N)(=O)=O)N1CCc2ccccc2C1,-0.2513
CNC(=O)C1CNC1,6.969
O=C(Nc1n[nH]c(C2CCC2)n1)c1cc(F)ccc1F,-10.76
NC1CCN(c2ncnc3c2CCC3)CC1,9.118
CCN1C[C@H](NC(=O)c2ccc(CSC)o2)[C@@H](OC)C1,22.93
Cc1nc(CN2CC3(CCNCC3)CCC2=O)cs1,0.2478
Cc1nn(CCO)c(NCc2cccc(F)c2)c1C,26.86
NCc1ccc(S(=O)(=O)N2CCOCC2)cc1,-11.26
Cc1nc(C(=O)NCC2CN(S(C)(=O)=O)CCO2)cs1 (centres unmarked),11.41
CCCNC(=O)CSc1nnc(NCC2CCCO2)s1 (centres unmarked),8.722
CC(C(N)=O)N(C)CC(=O)N(C)C1CCCCC1 (centres unmarked),7.638
O=C(Cn1cncn1)Nc1ccc(I)cn1,-15.48
NC(=O)c1ccc(NC(=O)CCN2CCSCC2)cc1,3.467
Cn1ccc(CNC(=O)NCC2CC2)c1,34.58

Repeated from the top, 6 entries:

| compound | percent effect |
|---|---|
| `O=C(Cc1ccc(F)cc1)N1CCNCC1` | 12.82 |
| `CCN(CCO)C(=O)c1ccn(-c2ccccc2F)n1` | 13.07 |
| `COc1ccc(CC(=O)NCC(C)C)c(OC)c1` | -7.551 |
| `CCOc1ncc(C(=O)NCc2ccnn2C)cc1Cl` | 33 |
| `CNCC(=O)Nc1ccc(N2CCOCC2)cc1` | 12.68 |
| `CCC1(CO)CCCN(Cc2[nH]cc(C)c(=O)c2C)C1` (centres unmarked) | 15.46 |

From ChEMBL document CHEMBL3988442, “University of Dundee, Small-Polar-MMV Screening Library” (2021).